{
  "sequences": {"note": "Protein sequences, listed by entry. Tags and fused reporters are not part of them.", "UniProt P20288, whole entry": "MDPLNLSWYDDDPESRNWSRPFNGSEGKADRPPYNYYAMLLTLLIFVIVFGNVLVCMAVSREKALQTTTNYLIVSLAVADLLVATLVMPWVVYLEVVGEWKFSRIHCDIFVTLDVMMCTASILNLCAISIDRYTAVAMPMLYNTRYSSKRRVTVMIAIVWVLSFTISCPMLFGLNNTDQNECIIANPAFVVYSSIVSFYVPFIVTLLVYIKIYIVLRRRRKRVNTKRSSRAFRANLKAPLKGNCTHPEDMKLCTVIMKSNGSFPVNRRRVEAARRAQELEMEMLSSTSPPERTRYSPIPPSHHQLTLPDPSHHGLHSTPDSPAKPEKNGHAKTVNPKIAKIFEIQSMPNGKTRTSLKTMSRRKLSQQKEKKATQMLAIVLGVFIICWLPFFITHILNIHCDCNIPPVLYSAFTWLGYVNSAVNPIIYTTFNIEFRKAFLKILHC"},
  "source": "patent US4762843A",
  "about": "“Hetero [f] fused carbocyclic pyridines as dopaminergic agents” (Warner-Lambert Company, priority 1987, dated 1988)",
  "target": "T1, haloperidol binding (Bos taurus, UniProt P20288)",
  "T1 construct": "from tissue",
  "assay": "Inhibition of haloperidol binding in a receptor binding assay",
  "details": "at 5 × 10^-7",
  "description": "The compounds of formula I are valuable dopaminergic agents. […] Thus, the compounds of formula I were tested for their ability to inhibit locomotor activity in mice according to the assay described in Pharmacol. Biochem. Behav. 1978 (8) 97; for their ability to inhibit haloperidol binding in a receptor binding assay described in Mol. Pharmacol. 1976 (12) 800; and for their ability to inhibit dopamine synthesis in rats according to the protocol described in Naumyn-Schmiedeberg's Arch. Pharmacol., 1976 (296) 5. The above test methods are incorporated herein by reference.",
  "note": "Where a name gives a salt, the structure may show the parent alone. The name of at least one read-out is uncertain.",
  "data": [
    {"smiles": "C=CCN1CCC=C2c3nc(N)sc3CCC21", "note": "(racemic) [Example 5d, (±) 4,5,5a,6,7,8-Hexahydro-6-(2-propenyl)thiazolo [4,5-f]quinolin-2-amine, dihydrochloride]", "values": [
      {"measurement": "Percent Inhibition Haloperidol Binding", "result": 69, "unit": "%"}
    ]}
  ]
}
